Source: article PMC1919423
These are yes or no findings as the source states them, for the method shown. Some results given as binding are weak or reduced against the parent protein; the word gives no strength.

By UniProt entry, the sequences of proteins in these tests, tags left out. Residues count along the entry.
UniProt P05161, residues 1-157: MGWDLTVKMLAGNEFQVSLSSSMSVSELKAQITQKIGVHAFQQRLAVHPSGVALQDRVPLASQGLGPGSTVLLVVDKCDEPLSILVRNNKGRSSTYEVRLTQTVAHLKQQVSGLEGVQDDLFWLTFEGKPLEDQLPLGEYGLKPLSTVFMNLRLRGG
UniProt P56399: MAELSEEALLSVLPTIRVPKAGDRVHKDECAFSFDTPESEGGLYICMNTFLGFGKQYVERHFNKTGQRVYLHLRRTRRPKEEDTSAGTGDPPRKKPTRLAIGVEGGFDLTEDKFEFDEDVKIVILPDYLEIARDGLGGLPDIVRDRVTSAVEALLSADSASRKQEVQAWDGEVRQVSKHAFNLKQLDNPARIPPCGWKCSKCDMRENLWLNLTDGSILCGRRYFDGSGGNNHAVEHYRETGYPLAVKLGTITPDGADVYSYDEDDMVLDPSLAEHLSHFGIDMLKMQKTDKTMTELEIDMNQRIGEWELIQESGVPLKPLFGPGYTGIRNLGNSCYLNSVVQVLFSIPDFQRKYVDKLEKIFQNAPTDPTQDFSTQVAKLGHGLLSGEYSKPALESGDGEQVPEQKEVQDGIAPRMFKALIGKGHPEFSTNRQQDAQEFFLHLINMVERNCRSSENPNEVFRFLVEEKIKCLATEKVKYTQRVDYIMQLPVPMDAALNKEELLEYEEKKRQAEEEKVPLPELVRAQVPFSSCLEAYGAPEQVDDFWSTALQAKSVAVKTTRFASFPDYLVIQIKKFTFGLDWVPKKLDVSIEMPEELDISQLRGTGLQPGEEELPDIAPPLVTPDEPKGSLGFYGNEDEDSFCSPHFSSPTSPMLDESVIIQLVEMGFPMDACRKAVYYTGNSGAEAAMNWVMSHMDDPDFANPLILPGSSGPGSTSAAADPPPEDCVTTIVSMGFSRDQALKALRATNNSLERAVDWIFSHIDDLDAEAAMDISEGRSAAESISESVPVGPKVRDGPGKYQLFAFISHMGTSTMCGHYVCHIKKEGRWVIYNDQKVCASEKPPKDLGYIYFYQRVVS
UniProt Q9JMA1: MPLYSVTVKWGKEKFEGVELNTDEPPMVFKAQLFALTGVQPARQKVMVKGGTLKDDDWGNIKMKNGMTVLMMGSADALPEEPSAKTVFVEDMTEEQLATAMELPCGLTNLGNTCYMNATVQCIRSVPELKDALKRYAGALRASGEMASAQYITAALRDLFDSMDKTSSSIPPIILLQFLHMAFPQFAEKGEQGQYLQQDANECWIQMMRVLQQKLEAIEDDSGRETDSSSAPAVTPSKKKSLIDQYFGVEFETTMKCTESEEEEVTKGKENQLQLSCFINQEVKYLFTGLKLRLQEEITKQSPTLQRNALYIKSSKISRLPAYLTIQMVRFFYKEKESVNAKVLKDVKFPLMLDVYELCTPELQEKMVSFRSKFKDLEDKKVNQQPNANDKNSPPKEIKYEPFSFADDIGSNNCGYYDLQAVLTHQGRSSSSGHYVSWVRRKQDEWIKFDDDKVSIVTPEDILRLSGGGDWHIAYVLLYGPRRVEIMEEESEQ

Target: N-terminally HA-tagged ISG15VS (human) (UniProt P05161)
Assay: covalent labelling with active-site directed probe (anti-HA immunoblot); 10 µg of EL4 subcellular fraction protein incubated with 0.2 µg of HA-ISG15VS in 10 µl for two hours at room temperature; proteasome inhibited with MG132 (50 µM); only the target purified

**Q.** With “USP5 of the five-hour supernatant of EL4 cells (from UniProt P56399 1-858) (enzyme)” as the substance, how does the binding read?
**A.** The binding was “binds”.

**Q.** For “USP14 of the proteasome-enriched fraction of EL4 cells (from UniProt Q9JMA1 1-493) (enzyme)”, which binding is on record?
**A.** Its binding is “binds”.
